Assay results from article PMC9299836 (eLife, 2022).
This continues a long series; more values of the same kind are listed elsewhere.

Amino acid sequences for entries named in this document (tags omitted). Residues count along the entry.
UniProt Q14BI2, 19-872 A548F: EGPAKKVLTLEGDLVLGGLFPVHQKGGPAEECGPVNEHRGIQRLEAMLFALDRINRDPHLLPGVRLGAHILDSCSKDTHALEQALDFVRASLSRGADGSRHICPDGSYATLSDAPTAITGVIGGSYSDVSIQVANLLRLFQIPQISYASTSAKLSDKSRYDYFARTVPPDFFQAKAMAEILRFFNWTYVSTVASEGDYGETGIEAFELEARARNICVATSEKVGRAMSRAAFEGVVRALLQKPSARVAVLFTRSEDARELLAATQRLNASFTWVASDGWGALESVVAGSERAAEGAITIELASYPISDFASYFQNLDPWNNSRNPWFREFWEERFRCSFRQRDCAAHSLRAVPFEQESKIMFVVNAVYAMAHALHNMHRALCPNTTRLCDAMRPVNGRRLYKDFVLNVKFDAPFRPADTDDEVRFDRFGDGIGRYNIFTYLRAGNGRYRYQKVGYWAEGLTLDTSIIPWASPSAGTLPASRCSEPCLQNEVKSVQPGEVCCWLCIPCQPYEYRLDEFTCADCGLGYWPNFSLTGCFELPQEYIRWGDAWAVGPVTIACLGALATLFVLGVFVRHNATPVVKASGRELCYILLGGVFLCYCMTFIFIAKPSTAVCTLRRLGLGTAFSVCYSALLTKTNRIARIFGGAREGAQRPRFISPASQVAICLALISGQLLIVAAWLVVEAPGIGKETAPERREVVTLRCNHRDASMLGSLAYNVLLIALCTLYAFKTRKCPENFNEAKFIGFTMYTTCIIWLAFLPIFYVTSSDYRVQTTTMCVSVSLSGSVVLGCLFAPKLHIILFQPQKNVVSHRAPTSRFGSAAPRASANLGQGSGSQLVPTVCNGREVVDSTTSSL

Target: mGluR2 (Mus musculus, UniProt Q14BI2, A548F)
Experiment: Single-molecule FRET (SiMPull) of azi-CRD: population histograms and state occupancy;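 also: Cy3/Cy5-labelled receptor from HEK293T cell lysate captured on anti-FLAG surfaces, apparent FRET efficiency computed from donor and acceptor intensities with crosstalk correction, pooled into population histograms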
Settings: N 3

smFRET Histogram, Mean (FRET 0, 15μM Glutamate + 5μM MNI-137): 1.90E-04
smFRET Histogram, Mean (FRET 0, 1000μM Glutamate + 5μM MNI-137): 8.06E-05
smFRET Histogram, Mean (FRET 0.02, 15μM Glutamate + 5μM MNI-137): 1.91E-04
smFRET Histogram, Mean (FRET 0.02, 1000μM Glutamate + 5μM MNI-137): 7.71E-05
smFRET Histogram, Mean (FRET 0.04, 15μM Glutamate + 5μM MNI-137): 2.94E-04
smFRET Histogram, Mean (FRET 0.04, 1000μM Glutamate + 5μM MNI-137): 1.18E-04
smFRET Histogram, Mean (FRET 0.06, 15μM Glutamate + 5μM MNI-137): 5.40E-04
smFRET Histogram, Mean (FRET 0.06, 1000μM Glutamate + 5μM MNI-137): 2.21E-04
smFRET Histogram, Mean (FRET 0.08, 15μM Glutamate + 5μM MNI-137): 0.00117
smFRET Histogram, Mean (FRET 0.08, 1000μM Glutamate + 5μM MNI-137): 3.52E-04
smFRET Histogram, Mean (FRET 0.1, 1000μM Glutamate + 5μM MNI-137): 7.30E-04
smFRET Histogram, Mean (FRET 0.12, 1000μM Glutamate + 5μM MNI-137): 0.00117
smFRET Histogram, Mean (FRET 0.14, 1000μM Glutamate + 5μM MNI-137): 0.00156
smFRET Histogram, Mean (FRET 0.16, 1000μM Glutamate + 5μM MNI-137): 0.00286
smFRET Histogram, Mean (FRET 0.18, 1000μM Glutamate + 5μM MNI-137): 0.00466
smFRET Histogram, Mean (FRET 0.2, 1000μM Glutamate + 5μM MNI-137): 0.00732
smFRET Histogram, Mean (FRET 0.22, 1000μM Glutamate + 5μM MNI-137): 0.01064
smFRET Histogram, Mean (FRET 0.24, 1000μM Glutamate + 5μM MNI-137): 0.01539
smFRET Histogram, Mean (FRET 0.26, 1000μM Glutamate + 5μM MNI-137): 0.02135
smFRET Histogram, Mean (FRET 0.28, 1000μM Glutamate + 5μM MNI-137): 0.02877
smFRET Histogram, Mean (FRET 0.3, 1000μM Glutamate + 5μM MNI-137): 0.03634
smFRET Histogram, Mean (FRET 0.32, 1000μM Glutamate + 5μM MNI-137): 0.04326
smFRET Histogram, Mean (FRET 0.34, 1000μM Glutamate + 5μM MNI-137): 0.04886
smFRET Histogram, Mean (FRET 0.36, 1000μM Glutamate + 5μM MNI-137): 0.05287
smFRET Histogram, Mean (FRET 0.38, 1000μM Glutamate + 5μM MNI-137): 0.05298
smFRET Histogram, Mean (FRET 0.4, 1000μM Glutamate + 5μM MNI-137): 0.05067
smFRET Histogram, Mean (FRET 0.42, 1000μM Glutamate + 5μM MNI-137): 0.04614
smFRET Histogram, Mean (FRET 0.44, 1000μM Glutamate + 5μM MNI-137): 0.04059
smFRET Histogram, Mean (FRET 0.46, 1000μM Glutamate + 5μM MNI-137): 0.0349
smFRET Histogram, Mean (FRET 0.48, 1000μM Glutamate + 5μM MNI-137): 0.02946
smFRET Histogram, Mean (FRET 0.5, 1000μM Glutamate + 5μM MNI-137): 0.02497
smFRET Histogram, Mean (FRET 0.52, 1000μM Glutamate + 5μM MNI-137): 0.02157
smFRET Histogram, Mean (FRET 0.56, 1000μM Glutamate + 5μM MNI-137): 0.01843
smFRET Histogram, Mean (FRET 0.6, 1000μM Glutamate + 5μM MNI-137): 0.01844
smFRET Histogram, Mean (FRET 0.64, 1000μM Glutamate + 5μM MNI-137): 0.01921
smFRET Histogram, Mean (FRET 0.66, 1000μM Glutamate + 5μM MNI-137): 0.02051
smFRET Histogram, Mean (FRET 0.7, 1000μM Glutamate + 5μM MNI-137): 0.0221
smFRET Histogram, Mean (FRET 0.72, 1000μM Glutamate + 5μM MNI-137): 0.02264
smFRET Histogram, Mean (FRET 0.74, 1000μM Glutamate + 5μM MNI-137): 0.02318
smFRET Histogram, Mean (FRET 0.76, 1000μM Glutamate + 5μM MNI-137): 0.02287
smFRET Histogram, Mean (FRET 0.78, 1000μM Glutamate + 5μM MNI-137): 0.02218
smFRET Histogram, Mean (FRET 0.8, 1000μM Glutamate + 5μM MNI-137): 0.02218
smFRET Histogram, Mean (FRET 0.82, 1000μM Glutamate + 5μM MNI-137): 0.02139
smFRET Histogram, Mean (FRET 0.88, 1000μM Glutamate + 5μM MNI-137): 0.01677
smFRET Histogram, Mean (FRET 0.9, 1000μM Glutamate + 5μM MNI-137): 0.01432
smFRET Histogram, Mean (FRET 0.92, 1000μM Glutamate + 5μM MNI-137): 0.01194
smFRET Histogram, Mean (FRET 0.94, 15μM Glutamate + 5μM MNI-137): 0.00365
smFRET Histogram, Mean (FRET 0.94, 1000μM Glutamate + 5μM MNI-137): 0.00931
smFRET Histogram, Mean (FRET 0.96, 15μM Glutamate + 5μM MNI-137): 0.00278
smFRET Histogram, Mean (FRET 0.96, 1000μM Glutamate + 5μM MNI-137): 0.00698
smFRET Histogram, Mean (FRET 0.98, 15μM Glutamate + 5μM MNI-137): 0.00234
smFRET Histogram, Mean (FRET 0.98, 1000μM Glutamate + 5μM MNI-137): 0.00498
smFRET Histogram, Mean (FRET 1, 15μM Glutamate + 5μM MNI-137): 0.00153
smFRET Histogram, Mean (FRET 1, 1000μM Glutamate + 5μM MNI-137): 0.00349
smFRET Histogram, Mean (FRET 1.02, 15μM Glutamate + 5μM MNI-137): 9.54E-04
smFRET Histogram, Mean (FRET 1.02, 1000μM Glutamate + 5μM MNI-137): 0.00213
smFRET Histogram, Mean (FRET 1.04, 15μM Glutamate + 5μM MNI-137): 6.26E-04
smFRET Histogram, Mean (FRET 1.04, 1000μM Glutamate + 5μM MNI-137): 0.00117
smFRET Histogram, Mean (FRET 1.06, 15μM Glutamate + 5μM MNI-137): 3.38E-04
smFRET Histogram, Mean (FRET 1.06, 1000μM Glutamate + 5μM MNI-137): 7.38E-04
smFRET Histogram, Mean (FRET 1.08, 15μM Glutamate + 5μM MNI-137): 2.07E-04
smFRET Histogram, Mean (FRET 1.08, 1000μM Glutamate + 5μM MNI-137): 3.26E-04
smFRET Histogram, Mean (FRET 1.1, 15μM Glutamate + 5μM MNI-137): 1.36E-04
smFRET Histogram, Mean (FRET 1.1, 1000μM Glutamate + 5μM MNI-137): 2.33E-04
smFRET Histogram, Mean (FRET 1.12, 15μM Glutamate + 5μM MNI-137): 6.87E-05
smFRET Histogram, Mean (FRET 1.12, 1000μM Glutamate + 5μM MNI-137): 1.43E-04
smFRET Histogram, Mean (FRET 1.14, 15μM Glutamate + 5μM MNI-137): 4.72E-05
smFRET Histogram, Mean (FRET 1.14, 1000μM Glutamate + 5μM MNI-137): 9.47E-05
smFRET Histogram, Mean (FRET 1.16, 15μM Glutamate + 5μM MNI-137): 3.60E-05
smFRET Histogram, Mean (FRET 1.18, 15μM Glutamate + 5μM MNI-137): 1.28E-05
smFRET Histogram, Mean (FRET 1.18, 1000μM Glutamate + 5μM MNI-137): 4.15E-05
smFRET Histogram, Mean (FRET 1.2, 15μM Glutamate + 5μM MNI-137): 3.64E-05
smFRET Histogram, Mean (FRET 1.2, 1000μM Glutamate + 5μM MNI-137): 1.07E-04
Substance: MNI-137
